In paper PMC9217539:
No constants are given. Whether binding was seen depends on the method and setting. Binding seen in cells or lysates may run through a third protein. Some entries that bind do so weakly or less than the wild type.

Sequences of proteins named here, by UniProt entry; tags and fusion partners are left off.
UniProt P27986: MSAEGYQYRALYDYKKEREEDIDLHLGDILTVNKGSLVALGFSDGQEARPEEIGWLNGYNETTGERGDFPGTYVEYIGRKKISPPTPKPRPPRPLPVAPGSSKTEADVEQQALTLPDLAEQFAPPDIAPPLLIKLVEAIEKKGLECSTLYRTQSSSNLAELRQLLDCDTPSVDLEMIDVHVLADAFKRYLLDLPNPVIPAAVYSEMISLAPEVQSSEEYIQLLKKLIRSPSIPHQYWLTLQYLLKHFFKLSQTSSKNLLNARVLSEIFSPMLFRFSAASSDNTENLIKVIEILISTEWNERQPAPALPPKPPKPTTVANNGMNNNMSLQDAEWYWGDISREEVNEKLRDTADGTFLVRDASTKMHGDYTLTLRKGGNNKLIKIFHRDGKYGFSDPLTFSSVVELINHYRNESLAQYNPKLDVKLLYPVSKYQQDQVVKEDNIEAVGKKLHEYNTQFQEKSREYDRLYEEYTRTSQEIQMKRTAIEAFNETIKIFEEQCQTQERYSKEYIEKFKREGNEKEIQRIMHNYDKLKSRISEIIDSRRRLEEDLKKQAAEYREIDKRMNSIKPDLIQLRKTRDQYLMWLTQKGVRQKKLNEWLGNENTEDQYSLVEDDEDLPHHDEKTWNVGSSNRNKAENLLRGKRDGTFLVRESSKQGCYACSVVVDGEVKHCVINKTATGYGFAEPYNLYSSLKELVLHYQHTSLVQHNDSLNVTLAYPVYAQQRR

Molecular target: T1, Rab22a (UniProt Q9UL26)
T1 sequence: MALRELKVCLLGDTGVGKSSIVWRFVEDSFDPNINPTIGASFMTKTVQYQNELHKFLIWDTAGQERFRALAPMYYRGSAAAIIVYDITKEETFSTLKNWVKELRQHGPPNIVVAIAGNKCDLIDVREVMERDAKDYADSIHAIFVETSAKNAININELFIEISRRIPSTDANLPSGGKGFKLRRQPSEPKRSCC
Test: co-IP; TPC1 and K1 cells transfected with Rab22a plasmid, 48 h; NP40 lysis buffer; Rab22a antibody or control IgG overnight at 4°C, Protein A+G agarose; western blot

binding: binds
Substance: PI3Kp85α (from UniProt P27986 1-724)
